Measurements published in paper PMC7840056.
No constants are given. Whether binding was seen depends on the method and setting.

Target: Purified recombinant H. pylori SlyD-ΔCter mutant (Helicobacter pylori) (UniProt O25748)
Experiment: Western blot of purified proteins under non-reducing conditions; purified recombinant SlyD proteins on a gel under non-reducing conditions, probed with anti-SlyD polyclonal antibodies; multimers put down to disulfide bonds; both purified

Substance: Purified recombinant H. pylori SlyD-ΔCter mutant (from UniProt O25748 1-154) (domain or fragment)
- binding: no binding
